{"source": "patent US20050288264A2", "about": "“Dosage Regimen and Pharmaceutical Composition for Emergency Contraception” (priority 2001, published 2005)", "origin": "cited, not measured here", "key": {"[1]": {"conditions": "used alone, single daily doses 150 μg to 1000 μg, even in 1 mg dose; cited from earlier work"}, "[2]": {"conditions": "two tablets containing 0.75 mg, 12 hours apart; cited from earlier work"}, "[3]": {"test_system": "endometrium", "conditions": "cited from earlier work"}, "[4]": {"conditions": "400 μg; cited from earlier work"}, "[5]": {"conditions": "used as postcoital contraceptive; cited from earlier work"}}, "note": "Like-named read-outs stand apart in the source and are kept apart here. At least one compound was matched to its structure with a doubt left."}
{"smiles": "C#C[C@]1(O)CC[C@H]2[C@@H]3CCC4=CC(=O)CC[C@@H]4[C@H]3CC[C@@]21CC", "note": "[levonorgestrel]", "values": [{"measurement": "postcoital contraceptive efficacy", "setting": "[1]", "result": "low"}, {"measurement": "protection compared with the Yuzpe regimen", "setting": "[2]", "result": "better than with the Yuzpe regimen"}, {"measurement": "effect on proliferation activity of the endometrium", "setting": "[3]; administered in the follicular phase", "result": "decreased the proliferation activity of the endometrium"}, {"measurement": "effect on proliferation activity of the endometrium", "setting": "[3]; administered in the luteal phase", "result": "no effect"}, {"measurement": "duration of alkalization of the intrauterine fluid", "setting": "[4]", "result": "approximately 48 hours"}, {"measurement": "start of alkalization of the intrauterine fluid after administration", "setting": "[4]", "result": 4, "unit": "h"}, {"measurement": "anti-ovulatory effect as share of the total effect", "setting": "[5]", "result": "~42", "unit": "%"}]}
